# Laboratory results taken from paper doi:10.1101/2023.08.04.552043.
# Chains of the proteins cited; added tags and fusions are not shown.
# UniProt Q6K7E6: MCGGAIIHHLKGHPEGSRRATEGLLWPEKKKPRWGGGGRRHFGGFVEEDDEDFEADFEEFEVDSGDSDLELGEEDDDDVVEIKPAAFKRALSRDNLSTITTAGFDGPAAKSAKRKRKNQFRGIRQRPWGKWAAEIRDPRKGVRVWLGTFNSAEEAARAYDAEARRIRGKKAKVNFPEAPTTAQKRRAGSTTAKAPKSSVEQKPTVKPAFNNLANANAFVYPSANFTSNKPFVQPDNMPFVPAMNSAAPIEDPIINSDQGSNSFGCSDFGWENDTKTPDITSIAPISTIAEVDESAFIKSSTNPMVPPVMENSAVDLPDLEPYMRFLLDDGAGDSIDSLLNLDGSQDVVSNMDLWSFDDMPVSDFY
# No constants are given. Whether binding was seen depends on the method and setting. Binding seen in cells or lysates may run through a third protein. Some results given as binding are weak or reduced against the parent protein; the word gives no strength. Where a sequence is shown, tags or fusion partners need not be part of it.
# B1: OsNAC2-GFP-HA (protein, UniProt Q7XUV6 1-343)
# chain: MEQHQGQAGMDLPPGFRFHPTDEELITHYLAKKVADARFAALAVAEADLNKCEPWDLPSLAKMGEKEWYFFCLKDRKYPTGLRTNRATESGYWKATGKDKDIFRRKALVGMKKTLVFYTGRAPKGEKSGWVMHEYRLHGKLHAAALGFLHGKPASSKNEWVLCRVFKKSLVEVGAAGGKKAAVVTMEMARGGSTSSSVADEIAMSSVVLPPLMDMSGAGAGAVDPATTAHVTCFSNALEGQFFNPTAVHGHGGGDSSPFMASFTQYGQLHHGVSLVQLLESCNGYGGLVDMAASGSQLQPAACGGERERLSASQDTGLTSDVNPEISSSSGQKFDHEAALWGY
# B2: OsNAC2-nYFP (protein, UniProt Q7XUV6 1-343)
# chain: B1 chain
# Experiments:
# [1] = molecular target: OsEREBP1-GFP-Myc (rice (Oryza sativa)) (UniProt Q6K7E6); assay: co-IP
# [2] = molecular target: OsEREBP1-cYFP (rice (Oryza sativa)) (UniProt Q6K7E6); assay: split reporter
Binder,binding [1],binding [2]
B1,binds,–
B2,–,binds
